Test results published in the supplement of paper PMC12462457.
Where a name gives a salt, the structure may show the parent alone. ± gives the standard deviation of the averaged measurements. This is one part of the list. This data set is noisy: repeats of one test often differ as much as different tests do.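 Imaging of DAPI-stained nuclei was used to count cells; those without phalloidin-stained cytoplasm were treated as dead and excluded. Every well's count was divided by the median of same-plate vehicle wells, then averaged across two replicate plates.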

Test system: OVCAR8
Test: cell count relative to DMSO vehicle (fold change); higher = more surviving senescent cells (less killing)
Conditions: senescence inducer: cisplatin 10 µM 48 h, then 6 d recovery (CP senescent), exposure time 24 h

SMILES | cell count (compound dose 1 µM) | cell count (compound dose 5 µM)
O=C(c1cccc(Cl)c1F)N1CCN(Cc2cccc(Nc3nccs3)n2)CC1 | 1.18 ± 0.021 | 0.559 ± 0.039
COc1cc(-c2coc3cc(O)c(OC)c(O)c3c2=O)cc(O)c1OC | 0.778 ± 0.047 | 0.709 ± 0.028
COC1=C(OC)C(=O)C(CCCCCCCCCCO)=C(C)C1=O | 0.97 ± 0.059 | 0.8205 ± 0.0021
O=C(Nc1c[nH]nc1-c1nc2ccc(CN3CCOCC3)cc2[nH]1)NC1CC1 | 0.759 ± 0.059 | 0.28 ± 0.079
Cc1cccc(NC(=O)Nc2ccc(-c3csc4ncnc(N)c34)cc2)c1 | 1.333 ± 0.0035 | 1.16 ± 0.54
CC(C)C[C@H](NC(=O)[C@@H](COC(C)(C)C)NC(=O)[C@H](Cc1ccc(O)cc1)NC(=O)[C@H](CO)NC(=O)[C@H](Cc1c[nH]c2ccccc12)NC(=O)[C@H](Cc1cnc[nH]1)NC(=O)[C@@H]1CCC(=O)N1)C(=O)N[C@@H](CCCNC(=N)N)C(=O)N1CCC[C@H]1C(=O)NNC(N)=O [Goserelin (acetate)] | 0.865 ± 0.15 | 0.861 ± 0.055
C/C=C1/[C@H](O[C@@H]2O[C@H](CO)[C@@H](O)[C@H](O)[C@H]2O)OC=C(C(=O)OC)[C@H]1CC(=O)OCCc1ccc(O)c(O)c1 [Oleuropein] | 0.904 ± 0.26 | 0.837 ± 0.21
COc1ccc(C(=O)CC2(O)C(=O)Nc3c(Cl)ccc(Cl)c32)cc1 (stereo not drawn) | 0.812 ± 0.095 | 0.634 ± 0.098
CC(C)=CC(O)C/C(C)=C/COc1c2ccoc2cc2oc(=O)ccc12 (stereo not drawn) [Notopterol] | 1.03 ± 0.072 | 1.09 ± 0.016
CC(C)(C)Cn1c(N)nc2ccc(-c3[nH]c(C(C)(C)C)nc3-c3ccc(F)cc3)nc21 | 1.29 ± 0.032 | 1.05 ± 0.17
CCCCC[C@H](O)/C=C/[C@@H]1[C@@H](C/C=C\CCCC(=O)O)[C@@H](O)C[C@H]1O [Dinoprost (tromethamine salt)] | 1.12 ± 0.029 | 0.961 ± 0.43
CC(C)N(C(=O)c1cc(F)ccc1Oc1cncnc1N1CC2(CCN(CC3CCC(NS(C)(=O)=O)CC3)CC2)C1)C(C)C (stereo not drawn) | 1.21 ± 0.17 | 1.11 ± 0.12
CCCCCCCCCCCCCCCCCCOP(=O)([O-])OC1CC[N+](C)(C)CC1 [Perifosine (KRX-0401)] | 0.986 ± 0.0014 | 1.18 ± 0.2
O=C(Nc1ccc(OC(F)(F)F)cc1)c1sccc1NCc1ccnc2ccccc12 | 1.05 ± 0.035 | 0.887 ± 0.21
N#Cc1ccc(-c2c(-c3ncn[nH]3)sc(N3CCOCC3)c2C#N)c(F)c1 | 0.9845 ± 0.0035 | 0.546 ± 0.0092
COc1cc2c(cc1OC)[C@@H](Cc1ccc(Oc3cc(C[C@@H]4c5cc(OC)c(OC)cc5CCN4C)ccc3O)cc1)N(C)CC2 [Dauricine] | 1.17 ± 0.11 | 0.7055 ± 0.0021
CC(=O)O[C@H](CC=C(C)C)C1=CC(=O)c2c(O)ccc(O)c2C1=O [Acetylshikonin] | 1.36 ± 0.36 | 0.859 ± 0.093
COc1ccc(C[C@@H]2c3cc(Oc4cc(C[C@@H]5c6cc(O)c(OC)cc6CCN5C)ccc4O)c(OC)cc3CCN2C)cc1 [Isoliensinine] | 1.0675 ± 0.00071 | 0.737 ± 0.29
OCCN1CCN(CCCN2c3ccccc3Sc3ccc(Cl)cc32)CC1 | 0.811 ± 0.079 | 0.72 ± 0.013
O=C(c1ccc(C(=O)N2CCC(N3CCCC3)CC2)c(Nc2ccccc2)c1)N1CCC(N2CCCC2)CC1 | 0.8345 ± 0.0021 | 0.828 ± 0.081
CCC[C@H](N[C@@H](C)C(=O)N1[C@H](C(=O)O)C[C@@H]2CCCC[C@@H]21)C(=O)OCC [Perindopril (erbumine)] | 1.06 ± 0.045 | 0.956 ± 0.41
O=c1c(-c2ccc(O)cc2)coc2cc(O[C@@H]3O[C@H](CO)[C@@H](O)[C@H](O)[C@H]3O)cc(O)c12 [Genistin] | 1.07 ± 0.13 | 0.87 ± 0.2

SMILES | cell count (compound dose 1 µM) | cell count (compound dose 5 µM)
O=c1c2ccccc2nc(/C=C/c2cccnc2)n1Cc1ccccc1 [RAD51 Inhibitor B02] | 1.18 ± 0.012 | 0.771 ± 0.023
COC1=CC(c2cc3ccccc3[nH]2)=N/C1=C\c1[nH]c(C)cc1C [Obatoclax (Mesylate)] | 0.54 ± 0.019 | 0.305 ± 0.14
COC(=O)C1=CO[C@@H](O[C@@H]2O[C@H](CO)[C@@H](O)[C@H](O)[C@H]2O)[C@@H]2[C@@H](C)[C@@H](O)C[C@H]12 [Loganin] | 0.967 ± 0.098 | 0.846 ± 0.081
C[C@@H]1C[C@H](N)C[C@H](c2ccncc2NC(=O)c2ccc(F)c(-c3c(F)cccc3F)n2)C1 [PIM-447 (dihydrochloride)] | 0.844 ± 0.041 | 0.724 ± 0.03
CCCC(=O)Nc1ncnc2c1ncn2[C@@H]1O[C@@H]2COP(=O)(O)O[C@H]2[C@H]1OC(=O)CCC [Bucladesine (calcium)] | 0.916 ± 0.17 | 0.812 ± 0.26
COc1cc(OC)c(C=C2C(=O)Nc3ccccc32)c(OC)c1 | 1.02 ± 0.13 | 1.07 ± 0.011
CO[C@@H]1[C@@H](OC(N)=O)[C@@H](O)[C@H](Oc2ccc3c(O)c(NC(=O)c4ccc(O)c(CC=C(C)C)c4)c(=O)oc3c2C)OC1(C)C [Novobiocin (Sodium)] | 0.986 ± 0.2 | 0.975 ± 0.059
O=Nc1c(-c2c(O)[nH]c3cc(Br)ccc23)[nH]c2ccccc12 [GSK 3 Inhibitor IX] | 0.597 ± 0.03 | 0.402 ± 0.015
CN(NC(=O)CC(=O)NN(C)C(=S)c1ccccc1)C(=S)c1ccccc1 [Elesclomol] | 0.261 ± 0.1 | 0.282 ± 0.22
Clc1ccc(-c2csc(NN=C3CCCC3)n2)cc1 | 0.889 ± 0.15 | 0.879 ± 0.018
COc1cc2c(cc1OC)[C@@H](Cc1ccc(O)c(Oc3cc4c(cc3OC)CCN(C)[C@@H]4Cc3ccc(O)cc3)c1)N(C)CC2 [Liensinine] | 0.695 ± 0.33 | 0.74 ± 0.061
Cc1ncc([N+](=O)[O-])n1CCO [Metronidazole] | 1.27 ± 0.12 | 1.02 ± 0.24
CC(C)=CCc1cc(-c2coc3cc(O)ccc3c2=O)ccc1O [Neobavaisoflavone] | 0.935 ± 0.033 | 0.457 ± 0.18
Cc1ccc(-c2c(C#N)c(N)n3c(nc4ccccc43)c2C#N)cc1 | 1.361 ± 0.011 | 1.2 ± 0.22
O=C([O-])c1ccccc1O.[Na+] [Sodium Salicylate] | 1.13 ± 0.25 | 0.648 ± 0.37
COc1ccc2[nH]cc(CCNC(C)=O)c2c1 | 0.915 ± 0.19 | 0.677 ± 0.41
Cc1ccc(C(=O)c2cc(O)c(O)c([N+](=O)[O-])c2)cc1 [Tolcapone] | 0.819 ± 0.012 | 0.835 ± 0.026
C=CC[C@@H]1/C=C(\C)C[C@H](C)C[C@H](OC)[C@H]2O[C@@](O)(C(=O)C(=O)N3CCCC[C@H]3C(=O)O[C@H](/C(C)=C/[C@@H]3CC[C@@H](O)[C@H](OC)C3)[C@H](C)[C@@H](O)CC1=O)[C@H](C)C[C@@H]2OC [Tacrolimus (monohydrate)] | 0.917 ± 0.088 | 0.621 ± 0.13
O=c1c(O)c(-c2cc(O)c(O)c(O)c2)oc2cc(O)cc(O)c12 | 0.801 ± 0.048 | 0.607 ± 0.23
COc1ccc(-c2cc(=O)c3c(O)cc(O)cc3o2)cc1 | 1.13 ± 0.18 | 1.15 ± 0.064
Cc1ccc(NC(=O)c2ccc(CN3CCN(C)CC3)cc2)cc1Nc1nc(-c2cccnc2)cs1 [Masitinib (AB1010)] | 0.868 ± 0.16 | 0.883 ± 0.27
O=C(COCC(=O)Nc1ccc(Cl)cc1C(=O)O)Nc1cccc(-c2ccoc2)c1 | 0.947 ± 0.15 | 1.15 ± 0.12

Single records, as listed above. Order of values: cell count (compound dose 1 µM)	cell count (compound dose 5 µM)
Cc1ncc([N+](=O)[O-])n1CCO [Metronidazole] is listed with 1.27 ± 0.12	1.02 ± 0.24
Cc1ccc(NC(=O)c2ccc(CN3CCN(C)CC3)cc2)cc1Nc1nc(-c2cccnc2)cs1 [Masitinib (AB1010)] is listed with 0.868 ± 0.16	0.883 ± 0.27
O=c1c(-c2ccc(O)cc2)coc2cc(O[C@@H]3O[C@H](CO)[C@@H](O)[C@H](O)[C@H]3O)cc(O)c12 [Genistin] is listed with 1.07 ± 0.13	0.87 ± 0.2
COc1cc(-c2coc3cc(O)c(OC)c(O)c3c2=O)cc(O)c1OC is listed with 0.778 ± 0.047	0.709 ± 0.028

(list continues)

SMILES | cell count (compound dose 1 µM) | cell count (compound dose 5 µM)
Cc1ccc(-c2nn(C(C)(C)CNC(=O)c3ccncc3)c3ncnc(N)c23)cc1 | 0.855 ± 0.078 | 0.765 ± 0.096
CCO[C@@H]1OC(=O)C[C@@H]1NC(=O)[C@@H]1CCCN1C(=O)[C@@H](NC(=O)c1ccc(N)c(Cl)c1)C(C)(C)C [Belnacasan] | 1.3 ± 0.19 | 1.17 ± 0.036
C[C@H]1[C@@H](O)O[C@@H]2O[C@@]3(C)CC[C@H]4[C@H](C)CC[C@@H]1[C@@]24OO3 [Dihydroartemisinin] | 1.04 ± 0.13 | 0.936 ± 0.14
O=c1n(CC2CO2)c(=O)n(CC2CO2)c(=O)n1CC1CO1 (stereo not drawn) [Triglycidyl isocyanurate] | 1.091 ± 0.005 | 1.14 ± 0.018
CCOC(=O)c1ccc(N2NC(=O)C(=Cc3ccc([N+](=O)[O-])o3)C2=O)cc1 | 1.04 ± 0.025 | 1.05 ± 0.073
N#CN=C(NCCCCCCOc1ccc(Cl)cc1)Nc1ccncc1 | 1.02 ± 0.25 | 0.897 ± 0.36
CCNC(=O)c1noc(-c2cc(Cl)c(O)cc2O)c1-c1ccc(OC)cc1 | 0.391 ± 0.038 | 0.351 ± 0.018
CC(C)=CCC[C@](C)(O[C@@H]1O[C@H](CO)[C@@H](O)[C@H](O)[C@H]1O)[C@H]1CC[C@]2(C)[C@@H]1[C@H](O)C[C@@H]1[C@@]3(C)CC[C@H](O)C(C)(C)[C@@H]3[C@@H](O[C@@H]3O[C@H](CO)[C@@H](O)[C@H](O)[C@H]3O[C@@H]3OC[C@@H](O)[C@H](O)[C@H]3O)C[C@]12C [Notoginsenoside R1] | 1.18 ± 0.12 | 0.64 ± 0.55
C/C=C(/C)C(=O)OC(C)(C)[C@@H]1Cc2c(ccc3ccc(=O)oc23)O1 [Columbianadin] | 0.844 ± 0.099 | 0.814 ± 0.069
C[C@]12C=CC(=O)C=C1CC[C@@H]1[C@@H]2C(=O)C[C@@]2(C)[C@H]1CC[C@]2(O)C(=O)CO | 0.998 ± 0.011 | 0.673 ± 0.42
COC(=O)CC[C@H](NC(=O)[C@H](CC(=O)OC)NC(=O)OCc1ccccc1)C(=O)N[C@H](C(=O)N[C@@H](CC(=O)OC)C(=O)CF)C(C)C | 1.04 ± 0.078 | 0.927 ± 0.052
Fc1ccc(Nc2nc3ccccc3nc2Nc2ccc(F)cc2)cc1 | 1.18 ± 0.098 | 0.926 ± 0.088
CCC[C@H](NC(=O)/C(C#N)=C/c1cccc(Br)n1)c1ccccc1 [Degrasyn] | 1.16 ± 0.077 | 0.116 ± 0.034
CC(=O)Nc1c(I)c(NC(C)=O)c(I)c(C(=O)O)c1I | 0.892 ± 0.27 | 0.471 ± 0.07
CC(=O)Nc1c(I)c(NC(C)=O)c(I)c(C(=O)O)c1I [Sodium diatrizoate] | 0.976 ± 0.026 | 0.979 ± 0.22
O=C(Nc1cccc(-c2nncn2C2CC2)c1)c1cc(-n2cnc(C3CC3)c2)ccn1 | 1 ± 0.071 | 1.026 ± 0.0021
CCC(C)(C)C(=O)C(=O)N1CCC[C@H]1C(=O)OCCCc1cccnc1 | 1.17 ± 0.049 | 1.09 ± 0.17
CN1CCCC(CN2c3ccccc3Sc3ccccc32)C1 (stereo not drawn) [Mepazine (hydrochloride)] | 0.785 ± 0.0014 | 0.792 ± 0.15
CN[C@@H](C)C(=O)N[C@H](C(=O)N1CCC[C@H]1C(=O)Nc1snnc1-c1ccccc1)C1CCCCC1 | 0.534 ± 0.032 | 0.298 ± 0.2
O=C(/C=C/c1ccc2ccc(C(F)(F)F)cc2n1)c1ccncc1 | 0.991 ± 0.098 | 0.116 ± 0.025
